# These are yes or no findings as the source states them, for the method shown. In cells and extracts the contact can be indirect. Some entries that bind do so weakly or less than the wild type. For some of these results: Where a sequence is shown, tags or fusion partners need not be part of it.
# By UniProt entry, the sequences of proteins in these tests, tags left out.
# UniProt Q8IUC6: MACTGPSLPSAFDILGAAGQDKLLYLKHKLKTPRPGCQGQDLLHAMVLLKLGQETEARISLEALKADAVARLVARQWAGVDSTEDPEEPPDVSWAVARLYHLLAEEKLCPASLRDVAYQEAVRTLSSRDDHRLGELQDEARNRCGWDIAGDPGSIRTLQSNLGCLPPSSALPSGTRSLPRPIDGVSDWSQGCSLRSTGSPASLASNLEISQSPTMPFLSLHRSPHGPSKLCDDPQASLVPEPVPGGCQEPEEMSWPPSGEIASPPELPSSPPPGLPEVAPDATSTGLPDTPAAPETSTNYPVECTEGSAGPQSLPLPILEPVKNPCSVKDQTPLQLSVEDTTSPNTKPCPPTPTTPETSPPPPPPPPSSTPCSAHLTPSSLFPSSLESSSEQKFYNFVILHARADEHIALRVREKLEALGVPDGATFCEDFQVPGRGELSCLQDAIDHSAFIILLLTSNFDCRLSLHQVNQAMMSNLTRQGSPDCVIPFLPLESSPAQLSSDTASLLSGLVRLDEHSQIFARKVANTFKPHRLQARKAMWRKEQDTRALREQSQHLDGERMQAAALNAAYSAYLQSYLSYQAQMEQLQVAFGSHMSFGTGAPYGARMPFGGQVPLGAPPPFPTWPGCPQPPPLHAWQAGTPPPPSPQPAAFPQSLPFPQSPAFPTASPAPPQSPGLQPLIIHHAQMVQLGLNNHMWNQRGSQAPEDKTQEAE
# T1: DDX50-HA (pCW57 MEF cell line) (UniProt Q99MJ9)
# T1 sequence: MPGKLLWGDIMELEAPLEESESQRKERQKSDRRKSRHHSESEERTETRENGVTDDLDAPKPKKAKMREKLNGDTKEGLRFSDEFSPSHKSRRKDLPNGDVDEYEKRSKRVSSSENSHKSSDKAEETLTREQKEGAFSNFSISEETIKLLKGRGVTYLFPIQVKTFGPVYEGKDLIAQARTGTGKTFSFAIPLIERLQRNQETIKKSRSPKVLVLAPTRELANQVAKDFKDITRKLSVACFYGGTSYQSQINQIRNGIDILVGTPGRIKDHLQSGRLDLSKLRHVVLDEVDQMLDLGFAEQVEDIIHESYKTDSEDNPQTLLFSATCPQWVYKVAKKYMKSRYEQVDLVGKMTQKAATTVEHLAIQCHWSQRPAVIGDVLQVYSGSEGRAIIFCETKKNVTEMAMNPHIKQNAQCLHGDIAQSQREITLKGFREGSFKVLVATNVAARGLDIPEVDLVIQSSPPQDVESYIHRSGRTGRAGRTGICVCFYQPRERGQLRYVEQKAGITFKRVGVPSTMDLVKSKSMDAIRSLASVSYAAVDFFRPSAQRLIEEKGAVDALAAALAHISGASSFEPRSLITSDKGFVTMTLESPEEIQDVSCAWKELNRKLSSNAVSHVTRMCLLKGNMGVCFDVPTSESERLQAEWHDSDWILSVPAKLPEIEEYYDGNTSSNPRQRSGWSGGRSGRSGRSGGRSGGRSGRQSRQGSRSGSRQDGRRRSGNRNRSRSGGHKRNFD
# T2: hDDX50-HA (in HeLa) (human) (UniProt Q9BQ39)
# T2 sequence: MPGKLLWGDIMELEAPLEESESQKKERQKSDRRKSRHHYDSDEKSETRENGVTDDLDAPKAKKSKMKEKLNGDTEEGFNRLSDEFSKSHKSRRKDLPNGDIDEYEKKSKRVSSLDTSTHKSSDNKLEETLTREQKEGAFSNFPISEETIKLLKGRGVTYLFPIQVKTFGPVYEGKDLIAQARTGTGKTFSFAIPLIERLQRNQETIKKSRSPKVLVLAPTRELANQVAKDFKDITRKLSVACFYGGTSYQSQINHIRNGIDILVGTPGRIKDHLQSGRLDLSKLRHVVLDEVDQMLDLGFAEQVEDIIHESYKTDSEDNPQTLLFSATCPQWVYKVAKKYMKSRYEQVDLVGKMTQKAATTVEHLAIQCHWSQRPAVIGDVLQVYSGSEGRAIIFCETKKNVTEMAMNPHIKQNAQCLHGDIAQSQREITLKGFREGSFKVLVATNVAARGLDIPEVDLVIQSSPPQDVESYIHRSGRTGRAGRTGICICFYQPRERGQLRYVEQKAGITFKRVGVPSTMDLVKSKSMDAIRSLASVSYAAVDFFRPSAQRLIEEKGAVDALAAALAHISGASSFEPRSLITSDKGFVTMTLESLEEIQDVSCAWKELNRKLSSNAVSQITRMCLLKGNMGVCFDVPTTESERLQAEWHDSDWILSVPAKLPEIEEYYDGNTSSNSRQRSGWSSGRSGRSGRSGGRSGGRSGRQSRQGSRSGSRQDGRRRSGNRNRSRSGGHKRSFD
# Key:
# Experiment in all cases: co-IP
# [1] = target: T1, DDX50-HA (pCW57 MEF cell line)
# [2] = target: T2, hDDX50-HA (in HeLa) (human)
# TRIF-cTAP (in HEK293T) = TRIF-cTAP (in HEK293T) (UniProt Q8IUC6)
# TRIF-cTAP (in HeLa) = TRIF-cTAP (in HeLa) (UniProt Q8IUC6)
molecule,measurement,setting,value
TRIF-cTAP (in MEFs) (from UniProt Q8IUC6 1-712),binding,[1],binds
"endogenous DDX1 (HeLa) (protein, UniProt Q92499 1-740) MAAFSEMGVMPEIAQAVEEMDWLLPTDIQAESIPLILGGGDVLMAAETGSGKTGAFSIPVIQIVYETLKDQQEGKKGKTTIKTGASVLNKWQMNPYDRGSAFAIGSDGLCCQSREVKEWHGCRATKGLMKGKHYYEVSCHDQGLCRVGWSTMQASLDLGTDKFGFGFGGTGKKSHNKQFDNYGEEFTMHDTIGCYLDIDKGHVKFSKNGKDLGLAFEIPPHMKNQALFPACVLKNAELKFNFGEEEFKFPPKDGFVALSKAPDGYIVKSQHSGNAQVTQTKFLPNAPKALIVEPSRELAEQTLNNIKQFKKYIDNPKLRELLIIGGVAARDQLSVLENGVDIVVGTPGRLDDLVSTGKLNLSQVRFLVLDEADGLLSQGYSDFINRMHNQIPQVTSDGKRLQVIVCSATLHSFDVKKLSEKIMHFPTWVDLKGEDSVPDTVHHVVVPVNPKTDRLWERLGKSHIRTDDVHAKDNTRPGANSPEMWSEAIKILKGEYAVRAIKEHKMDQAIIFCRTKIDCDNLEQYFIQQGGGPDKKGHQFSCVCLHGDRKPHERKQNLERFKKGDVRFLICTDVAARGIDIHGVPYVINVTLPDEKQNYVHRIGRVGRAERMGLAISLVATEKEKVWYHVCSSRGKGCYNTRLKEDGGCTIWYNEMQLLSEIEEHLNCTISQVEPDIKVPVDEFDGKVTYGQKRAAGGGSYKGHVDILAPTVQELAALEKEAQTSFLHLGYLPNQLFRTF",binding,[2],binds weakly
"endogenous DDX1 (HEK293T) (protein, UniProt Q92499 1-740) MAAFSEMGVMPEIAQAVEEMDWLLPTDIQAESIPLILGGGDVLMAAETGSGKTGAFSIPVIQIVYETLKDQQEGKKGKTTIKTGASVLNKWQMNPYDRGSAFAIGSDGLCCQSREVKEWHGCRATKGLMKGKHYYEVSCHDQGLCRVGWSTMQASLDLGTDKFGFGFGGTGKKSHNKQFDNYGEEFTMHDTIGCYLDIDKGHVKFSKNGKDLGLAFEIPPHMKNQALFPACVLKNAELKFNFGEEEFKFPPKDGFVALSKAPDGYIVKSQHSGNAQVTQTKFLPNAPKALIVEPSRELAEQTLNNIKQFKKYIDNPKLRELLIIGGVAARDQLSVLENGVDIVVGTPGRLDDLVSTGKLNLSQVRFLVLDEADGLLSQGYSDFINRMHNQIPQVTSDGKRLQVIVCSATLHSFDVKKLSEKIMHFPTWVDLKGEDSVPDTVHHVVVPVNPKTDRLWERLGKSHIRTDDVHAKDNTRPGANSPEMWSEAIKILKGEYAVRAIKEHKMDQAIIFCRTKIDCDNLEQYFIQQGGGPDKKGHQFSCVCLHGDRKPHERKQNLERFKKGDVRFLICTDVAARGIDIHGVPYVINVTLPDEKQNYVHRIGRVGRAERMGLAISLVATEKEKVWYHVCSSRGKGCYNTRLKEDGGCTIWYNEMQLLSEIEEHLNCTISQVEPDIKVPVDEFDGKVTYGQKRAAGGGSYKGHVDILAPTVQELAALEKEAQTSFLHLGYLPNQLFRTF",binding,TRIF-cTAP (in HEK293T),binds
"hDDX50-HA (in HeLa) (protein, UniProt Q9BQ39 1-737) MPGKLLWGDIMELEAPLEESESQKKERQKSDRRKSRHHYDSDEKSETRENGVTDDLDAPKAKKSKMKEKLNGDTEEGFNRLSDEFSKSHKSRRKDLPNGDIDEYEKKSKRVSSLDTSTHKSSDNKLEETLTREQKEGAFSNFPISEETIKLLKGRGVTYLFPIQVKTFGPVYEGKDLIAQARTGTGKTFSFAIPLIERLQRNQETIKKSRSPKVLVLAPTRELANQVAKDFKDITRKLSVACFYGGTSYQSQINHIRNGIDILVGTPGRIKDHLQSGRLDLSKLRHVVLDEVDQMLDLGFAEQVEDIIHESYKTDSEDNPQTLLFSATCPQWVYKVAKKYMKSRYEQVDLVGKMTQKAATTVEHLAIQCHWSQRPAVIGDVLQVYSGSEGRAIIFCETKKNVTEMAMNPHIKQNAQCLHGDIAQSQREITLKGFREGSFKVLVATNVAARGLDIPEVDLVIQSSPPQDVESYIHRSGRTGRAGRTGICICFYQPRERGQLRYVEQKAGITFKRVGVPSTMDLVKSKSMDAIRSLASVSYAAVDFFRPSAQRLIEEKGAVDALAAALAHISGASSFEPRSLITSDKGFVTMTLESLEEIQDVSCAWKELNRKLSSNAVSQITRMCLLKGNMGVCFDVPTTESERLQAEWHDSDWILSVPAKLPEIEEYYDGNTSSNSRQRSGWSSGRSGRSGRSGGRSGGRSGRQSRQGSRSGSRQDGRRRSGNRNRSRSGGHKRSFD",binding,TRIF-cTAP (in HeLa),binds

# Source: paper doi:10.1101/2020.08.06.239376
